We go through 15 molecules from article PMC6705763.

Amino acid sequences for entries named in this document (tags omitted). A change or cut given only in a name is not applied to a line headed by its entry.
UniProt Q9LI00: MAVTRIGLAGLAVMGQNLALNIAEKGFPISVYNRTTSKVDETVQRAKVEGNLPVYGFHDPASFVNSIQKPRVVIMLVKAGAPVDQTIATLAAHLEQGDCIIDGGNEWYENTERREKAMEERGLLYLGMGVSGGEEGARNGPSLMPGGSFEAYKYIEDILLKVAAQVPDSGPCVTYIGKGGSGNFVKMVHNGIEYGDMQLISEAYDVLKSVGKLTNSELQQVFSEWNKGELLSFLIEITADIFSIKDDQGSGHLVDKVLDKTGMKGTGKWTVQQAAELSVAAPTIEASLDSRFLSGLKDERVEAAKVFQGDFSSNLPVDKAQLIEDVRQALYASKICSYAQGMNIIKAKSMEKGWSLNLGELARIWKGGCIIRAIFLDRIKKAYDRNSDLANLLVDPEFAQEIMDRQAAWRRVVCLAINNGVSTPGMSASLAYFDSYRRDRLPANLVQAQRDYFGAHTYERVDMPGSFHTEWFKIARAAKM

Test [1] concerns the target T1, OsMADS16 (pGBKT7-OsMADS16, GAL4 DNA-binding domain fusion) (rice (Oryza sativa L.)) (UniProt Q944S9).
T1 sequence: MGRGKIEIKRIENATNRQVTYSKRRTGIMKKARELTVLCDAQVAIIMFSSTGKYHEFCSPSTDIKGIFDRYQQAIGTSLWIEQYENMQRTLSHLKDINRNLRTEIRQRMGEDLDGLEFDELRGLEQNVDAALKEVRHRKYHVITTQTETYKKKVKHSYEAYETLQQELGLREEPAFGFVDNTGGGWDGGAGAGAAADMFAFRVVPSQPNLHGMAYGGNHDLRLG
The experiment in a line: two-hybrid; yeast AH109 cotransformed with pGBKT7-OsMADS16 (bait) and pGADT7 with the full-length CDS of each candidate (prey); selected on SD/-Leu/-Trp/-His and higher stringency SD/-Leu/-Trp/-His/-Ade plates.

Test [2] deals with T2, nYFP-OsMADS16 (pCAMBIA1300S-YN-OsMADS16) (rice (Oryza sativa L.)) (UniProt Q944S9).
T2 sequence: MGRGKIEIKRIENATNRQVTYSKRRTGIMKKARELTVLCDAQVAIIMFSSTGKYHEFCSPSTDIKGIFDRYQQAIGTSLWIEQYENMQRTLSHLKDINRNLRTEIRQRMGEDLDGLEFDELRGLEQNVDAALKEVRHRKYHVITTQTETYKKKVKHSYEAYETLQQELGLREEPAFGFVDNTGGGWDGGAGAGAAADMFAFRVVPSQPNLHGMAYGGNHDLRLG
The test can be described thus: split reporter; BiFC in rice protoplasts; OsMADS16 in pCAMBIA1300S-YN, candidates in pCAMBIA2300S-YC; PEG-mediated transfection; confocal microscopy; H2B as nuclear marker.

The target in test [3] is GFP-26S (pCXSN-nGFP) (rice (Oryza sativa L.)). The test can be described thus: co-IP; rice protoplasts cotransformed with pCAMBIA2300-OsMADS16-Flag and pCXSN-nGFP-candidate; lysate bound to GFP-Nanoab-Agarose 2 h at 4°C, washed four times; western blot with anti-Flag or anti-GFP.
For test [4], the target named is GFP-ES43 (pCXSN-nGFP) (rice (Oryza sativa L.)). Described as above.
The target in test [5] is GFP-Os6PGDH (pCXSN-nGFP) (rice (Oryza sativa L.)) (UniProt Q9LI00). The test is described as above.
For test [6], the target named is GFP-OsCOP9 (pCXSN-nGFP) (rice (Oryza sativa L.)). The description is as above.
The target in test [7] is GFP-OsbHLH40 (pCXSN-nGFP) (rice (Oryza sativa L.)). The test is described as above.
Test [8] addresses GFP-SLG (pCXSN-nGFP) (rice (Oryza sativa L.)). Described as above.
Test [9] concerns the target GFP-UN1 (pCXSN-nGFP) (rice (Oryza sativa L.)). Described as above.

No constants are given. Whether binding was seen depends on the method and setting. Binding calls can cover weak binding; strength is not graded here. Where a sequence is shown, tags or fusion partners need not be part of it. For part of these data: In cells and extracts the contact can be indirect.

For the molecule “26S (ATP-dependent 26S proteasome regulatory subunit; pGADT7 prey) (rice (Oryza sativa L.))”, the binding result in test [1] is given as “binds”. Same read-out and setting: under “ES43 (pGADT7 prey) (from UniProt Q7EYS4)” stands “binds”. On the same count and under the same terms, under “Os6PGDH (pGADT7 prey) (from UniProt Q9LI00)” stands “binds”; under “OsCOP9 (pGADT7 prey) (from UniProt Q6ZJ47)”, “binds”. On the same count and under the same terms, under “OsbHLH40 (pGADT7 prey) (from UniProt Q10NS6)” stands “binds”; under SLG (pGADT7 prey) (from UniProt Q6YYV8), “binds”. As to UN1 (pGADT7 prey) (from UniProt Q0JRA3), in test [1], the binding entry is recorded as “binds”. Turning to “cYFP-26S (pCAMBIA2300S-YC) (rice (Oryza sativa L.))”, the binding entry in [2] is recorded as “binds”.

As for “cYFP-ES43 (pCAMBIA2300S-YC) (rice (Oryza sativa L.))”, the binding entry in test [2] is “binds”.

Take “cYFP-Os6PGDH (pCAMBIA2300S-YC) (from UniProt Q9LI00)”: the binding result in [2] is on record as “binds”.

For “cYFP-OsCOP9 (pCAMBIA2300S-YC) (rice (Oryza sativa L.))”, the binding entry in [2] is reported as “binds”.

As to “cYFP-OsbHLH40 (pCAMBIA2300S-YC) (rice (Oryza sativa L.))”, the binding result in [2] is “binds”. The same measure, in the same setting: under “cYFP-SLG (pCAMBIA2300S-YC) (rice (Oryza sativa L.))” stands “binds”; under “cYFP-UN1 (pCAMBIA2300S-YC) (rice (Oryza sativa L.))”, “binds”.

B1: OsMADS16-Flag (pCAMBIA2300-OsMADS16-Flag) (protein, UniProt Q944S9 1-224)
chain: MGRGKIEIKRIENATNRQVTYSKRRTGIMKKARELTVLCDAQVAIIMFSSTGKYHEFCSPSTDIKGIFDRYQQAIGTSLWIEQYENMQRTLSHLKDINRNLRTEIRQRMGEDLDGLEFDELRGLEQNVDAALKEVRHRKYHVITTQTETYKKKVKHSYEAYETLQQELGLREEPAFGFVDNTGGGWDGGAGAGAAADMFAFRVVPSQPNLHGMAYGGNHDLRLG
On to B1, for which the binding entry in test [3], in [4], in test [5], in [6], in test [7] and in test [8] was “binds” throughout. In addition, the binding entry in test [9] is “binds”.
